Test results: publication PMC5996148
Some of the results follow.

Columns and labels:
Assay in all cases: protein microarray (ProtoArray v5.0), streptavidin-Alexa Fluor 647
Conditions in all cases: 3'-biotin; 20 mM Tris (pH 7.5), 5 mM MgCl2, 100 mM KCl, 0.1% Tween-20, A/T-rich and random oligonucleotide blockers; temperature not stated; high values mean tight binding
NUDT9 (human) = test system: NUDT9 (human)
NUMB (human) = test system: NUMB (human)
NUPL1 (human) = test system: NUPL1 (human)
NXNL1 (human) = test system: NXNL1 (human)
[1] = test system: Neuritin-like protein (human)
[2] = test system: Neurocalcin-delta (human)
[3] = test system: Neuronal migration protein doublecortin (human)
Neuroplastin (human) = test system: Neuroplastin (human)
[4] = test system: Neutrophil cytosol factor 1 (human)
[5] = test system: Non-histone chromosomal protein HMG-14 (human)

Sequence: GGTGACAGGGGTATGGGGAGGGG [G4-2 biotinylated (Ct1)]
- binding signal (NUDT9 (human)): -0.371 z-score
- binding signal (NUMB (human)): -0.381 z-score
- binding signal (NUPL1 (human)): -0.378 z-score
- binding signal (NXNL1 (human)): -0.385 z-score
- binding signal [1]: -0.357 z-score
- binding signal [2]: -0.396 z-score
- binding signal [3]: 3.89 z-score
- binding signal (Neuroplastin (human)): -0.373 z-score
- binding signal [4]: 3.73 z-score
- binding signal [5]: 6.03 z-score
